Measurements taken from patent US20150173847A1, “IMAGING MARKER AND UTILIZATION THEREOF” (priority 2012, published 2015).

Key:
[1] = MRI imaging (MPRAGE, 3-tesla) of metal compound aqueous solutions in tubes; MRI-CNR with reference to water
[2] = CT imaging (Inveon animal CT) of representative metal compound aqueous solutions; CT-CNR
[3] = PET transmission imaging (microPET, 68Ga/Ge point source) of metal compound aqueous solutions; PET-CNR with reference to water; conditions: PET transmission image, aqueous solution at the concentration of maximum MRI contrast
[4] = concentration at which the aqueous solution exhibited maximum MRI contrast
[5] = maximum contrast ratio of the aqueous solution at multiple levels of concentration, MPRAGE, 3-tesla, 22° C., reference to water
[6] = aqueous solution that exhibited maximum MRI contrast
[7] = representative aqueous solutions of Table 1

SMILES | MRI CNRmax [1] | Metal concentration [1] | CT CNR (×10^2) [2] | CT values compared with water [2] | Metal concentration [1, 4] | MRI CNRmax [1, 5] | PET CNR [3] | CT CNR (×10^2) [2, 6] | CT values compared with water [2, 7] | PET CNR ([3]; listed as SPT) | CT image contrast ratios [2, 7]
O=S(=O)([O-])[O-].[Cu+2] [Cu (CuSO4), Copper sulfate] | 90 | 10 mM | −0.5 ×10^2 | about the same CT values as that generated by water | – | – | – | – | – | – | –
CNC[C@H](O)[C@@H](O)[C@H](O)[C@H](O)CO.CNC[C@H](O)[C@@H](O)[C@H](O)[C@H](O)CO.O=C([O-])CN(CCN(CC(=O)[O-])CC(=O)O)CCN(CC(=O)[O-])CC(=O)O.[Gd+3] [Gd (Gd-DTPA), meglumine gadopentetate] | – | – | – | – | 1.0 mM | 49 | −0.66 | −0.6 ×10^2 | about the same CT values as that generated by water | – | –
O.[Na+].[Na+].[Na+].[Na+].[Na+].[Na+].[O]=[W](=[O])([O-])[O-].[O]=[W](=[O])([O-])[O-].[O]=[W](=[O])([O-])[O-].[O]=[W](=[O])=[O].[O]=[W](=[O])=[O].[O]=[W](=[O])=[O].[O]=[W](=[O])=[O].[O]=[W](=[O])=[O].[O]=[W](=[O])=[O].[O]=[W](=[O])=[O].[O]=[W](=[O])=[O].[O]=[W](=[O])=[O] [W (SPT), Sodium polytungstate] | – | – | – | – | 10000 mM | 31 | 40.3 | 17 ×10^2 | – | 21 | 17×10^2

Like-named read-outs stand apart in the source and are kept apart here.
